Laboratory results as given in patent US7063948B1, “Uses of antibodies against AChE and peptides thereof” (Yissum Research Development Company of the Hebrew …, priority 1999, dated 2006).
Some entries share one result that the patent states for a list of compounds. At least one structure is not confirmed: it was looked up by name or label, or the drawing left a doubt.

Test: Brain penetrance of contrast agents in patients (CT, MRI, SPECT)
Settings: in 17 out of 34 patients with diverse CNS related symptoms

Row | Structure (SMILES) | increase in brain penetrance of contrast agent
1 | O=C(O)CN(CCN(CC(=O)O)CC(=O)O)CCN(CC(=O)O)CC(=O)O [DTPA] | greater than 50%
2 | [Gd] [gadolinium] | greater than 50%
